Laboratory results reported in PMC5982827.
No constants are given. Whether binding was seen depends on the method and setting. Binding seen in cells or lysates may run through a third protein. Some results given as binding are weak or reduced against the parent protein; the word gives no strength. For some assays here: Where a sequence is shown, tags or fusion partners need not be part of it.

By UniProt entry, the sequences of proteins in these tests, tags left out.
UniProt P32447: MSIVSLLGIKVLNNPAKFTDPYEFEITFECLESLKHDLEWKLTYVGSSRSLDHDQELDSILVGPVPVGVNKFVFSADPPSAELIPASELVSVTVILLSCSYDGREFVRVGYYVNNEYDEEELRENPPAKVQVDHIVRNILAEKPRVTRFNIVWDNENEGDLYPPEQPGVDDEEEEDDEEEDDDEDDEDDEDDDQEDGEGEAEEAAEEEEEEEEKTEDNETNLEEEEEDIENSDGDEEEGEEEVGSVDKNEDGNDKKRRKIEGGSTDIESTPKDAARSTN
UniProt Q12341: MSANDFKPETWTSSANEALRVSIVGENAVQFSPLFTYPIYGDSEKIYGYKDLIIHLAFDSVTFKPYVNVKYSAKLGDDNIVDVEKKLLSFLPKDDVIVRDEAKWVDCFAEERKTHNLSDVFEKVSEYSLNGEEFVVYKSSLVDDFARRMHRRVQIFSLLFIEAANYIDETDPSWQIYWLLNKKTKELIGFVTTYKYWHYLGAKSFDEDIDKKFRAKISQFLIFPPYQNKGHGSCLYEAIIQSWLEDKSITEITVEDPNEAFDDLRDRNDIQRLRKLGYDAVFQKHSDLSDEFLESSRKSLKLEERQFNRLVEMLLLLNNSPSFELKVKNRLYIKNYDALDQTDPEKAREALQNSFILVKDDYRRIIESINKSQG
UniProt Q12373: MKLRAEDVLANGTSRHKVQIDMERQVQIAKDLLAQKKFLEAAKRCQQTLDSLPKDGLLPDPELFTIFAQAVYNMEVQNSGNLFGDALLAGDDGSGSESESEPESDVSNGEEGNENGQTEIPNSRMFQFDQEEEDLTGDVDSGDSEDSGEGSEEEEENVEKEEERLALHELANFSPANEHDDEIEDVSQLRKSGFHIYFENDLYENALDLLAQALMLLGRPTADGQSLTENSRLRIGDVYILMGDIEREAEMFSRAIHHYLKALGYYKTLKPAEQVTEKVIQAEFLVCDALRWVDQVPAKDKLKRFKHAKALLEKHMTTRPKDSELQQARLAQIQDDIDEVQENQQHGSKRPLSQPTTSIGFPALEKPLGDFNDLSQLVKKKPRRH

Legend:
Asf1-TAP (S. cerevisiae) [1] = target: Asf1-TAP (S. cerevisiae) (UniProt P32447); assay: co-IP; TAP-tagged bait (Hat1, Hat2, Asf1 or Spt2) immunoprecipitated from lysates of yeast cells carrying plasmid-borne 12MYC-Hif1 constructs; blots with anti-MYC and anti-TAP; for Asf1 also a one step co-IP with TEV protease elution (Figure 3E)
Hat1-TAP (S. cerevisiae) = Hat1-TAP (S. cerevisiae) (UniProt Q12341); assay: as above
Hat2-TAP (S. cerevisiae) = target: T1, Hat2-TAP (S. cerevisiae) (UniProt P39984); assay: as above
T1 sequence: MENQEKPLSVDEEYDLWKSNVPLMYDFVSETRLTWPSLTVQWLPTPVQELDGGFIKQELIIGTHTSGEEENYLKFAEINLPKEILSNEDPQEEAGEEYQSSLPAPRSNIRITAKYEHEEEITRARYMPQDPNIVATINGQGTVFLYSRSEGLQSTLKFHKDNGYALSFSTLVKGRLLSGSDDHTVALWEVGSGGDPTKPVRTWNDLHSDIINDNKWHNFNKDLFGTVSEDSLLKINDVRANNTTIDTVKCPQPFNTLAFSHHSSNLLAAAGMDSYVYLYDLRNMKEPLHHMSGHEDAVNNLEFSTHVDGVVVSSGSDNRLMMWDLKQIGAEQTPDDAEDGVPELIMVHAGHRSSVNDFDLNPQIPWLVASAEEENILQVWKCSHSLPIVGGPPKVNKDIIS

Spt2-TAP (S. cerevisiae) [2] = target: T2, Spt2-TAP (S. cerevisiae) (UniProt P06843); assay: as above
T2 sequence: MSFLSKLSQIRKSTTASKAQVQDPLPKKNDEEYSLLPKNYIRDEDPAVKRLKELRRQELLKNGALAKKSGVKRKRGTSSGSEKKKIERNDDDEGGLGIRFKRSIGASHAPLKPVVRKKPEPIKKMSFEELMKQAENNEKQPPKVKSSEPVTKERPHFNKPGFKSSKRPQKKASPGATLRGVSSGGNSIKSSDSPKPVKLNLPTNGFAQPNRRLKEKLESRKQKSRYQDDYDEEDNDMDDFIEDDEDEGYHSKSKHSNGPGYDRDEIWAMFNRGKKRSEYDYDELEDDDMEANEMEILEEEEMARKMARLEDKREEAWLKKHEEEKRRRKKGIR

Spt2-TAP (S. cerevisiae) [3] = target: T2, Spt2-TAP (S. cerevisiae); assay: co-IP; Spt2-TAP (or Asf1-TAP as control) immunoprecipitated from cells expressing Hif1, Hat1 or Hat2 with C-terminal 13MYC from the native loci; blot with anti-MYC
Asf1-TAP (S. cerevisiae) [4] = target: Asf1-TAP (S. cerevisiae) (UniProt P32447); assay: as above

## 12MYC-Hif1 full length (F.L.) (from UniProt Q12373 1-385)
Asf1-TAP (S. cerevisiae) [1]
  binding: binds
Hat1-TAP (S. cerevisiae)
  binding: binds
Hat2-TAP (S. cerevisiae)
  binding: binds
Spt2-TAP (S. cerevisiae) [2]
  binding: binds

## Hat1 carrying C-terminal 13MYC epitope tag (from UniProt Q12341 1-374) (enzyme)
Spt2-TAP (S. cerevisiae) [3]
  binding: binds

## Hif1 carrying C-terminal 13MYC epitope tag (from UniProt Q12373 1-385)
Asf1-TAP (S. cerevisiae) [4]
  binding: binds
Spt2-TAP (S. cerevisiae) [3]
  binding: binds

B1: Hat2 carrying C-terminal 13MYC epitope tag (protein, UniProt P39984 1-401)
chain: MENQEKPLSVDEEYDLWKSNVPLMYDFVSETRLTWPSLTVQWLPTPVQELDGGFIKQELIIGTHTSGEEENYLKFAEINLPKEILSNEDPQEEAGEEYQSSLPAPRSNIRITAKYEHEEEITRARYMPQDPNIVATINGQGTVFLYSRSEGLQSTLKFHKDNGYALSFSTLVKGRLLSGSDDHTVALWEVGSGGDPTKPVRTWNDLHSDIINDNKWHNFNKDLFGTVSEDSLLKINDVRANNTTIDTVKCPQPFNTLAFSHHSSNLLAAAGMDSYVYLYDLRNMKEPLHHMSGHEDAVNNLEFSTHVDGVVVSSGSDNRLMMWDLKQIGAEQTPDDAEDGVPELIMVHAGHRSSVNDFDLNPQIPWLVASAEEENILQVWKCSHSLPIVGGPPKVNKDIIS
Spt2-TAP (S. cerevisiae) [3]
  binding: binds
